Here are results for two molecules from publication PMC5894228.

Protein sequences, listed by entry. Tags and fused reporters are not part of them. Residues count along the entry.
UniProt P19838, residues 1-433: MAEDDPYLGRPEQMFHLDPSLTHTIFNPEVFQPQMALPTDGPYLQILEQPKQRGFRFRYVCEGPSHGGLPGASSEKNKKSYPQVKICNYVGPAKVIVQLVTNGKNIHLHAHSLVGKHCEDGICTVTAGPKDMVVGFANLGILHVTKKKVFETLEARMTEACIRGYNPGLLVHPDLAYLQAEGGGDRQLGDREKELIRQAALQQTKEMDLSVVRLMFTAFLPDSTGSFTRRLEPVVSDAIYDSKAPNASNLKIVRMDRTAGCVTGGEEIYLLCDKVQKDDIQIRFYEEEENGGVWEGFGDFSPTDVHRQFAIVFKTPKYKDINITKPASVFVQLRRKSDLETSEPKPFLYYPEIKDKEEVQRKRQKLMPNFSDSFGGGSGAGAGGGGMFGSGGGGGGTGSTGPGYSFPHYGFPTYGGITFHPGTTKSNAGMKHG

Experiment [1] has as its target T1, N-terminal fragment (amino acids 1–276) of SP110 (human) (UniProt Q9HB58).
T1 sequence: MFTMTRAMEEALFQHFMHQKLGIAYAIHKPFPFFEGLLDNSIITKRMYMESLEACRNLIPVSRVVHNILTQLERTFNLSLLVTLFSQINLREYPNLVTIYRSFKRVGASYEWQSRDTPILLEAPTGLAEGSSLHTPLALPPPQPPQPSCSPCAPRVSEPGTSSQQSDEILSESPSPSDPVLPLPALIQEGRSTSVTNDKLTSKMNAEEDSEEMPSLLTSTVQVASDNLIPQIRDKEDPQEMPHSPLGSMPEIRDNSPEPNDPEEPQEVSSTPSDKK
Put plainly: co-IP; HEK293T co-transfected, 2 days; whole-cell lysates (RIPA buffer) incubated with anti-FLAG M2 magnetic beads overnight at 4 °C, washed with PBS, Western blot; control IgG in Fig. 6e. For orientation: Immunoblotting shows a protein as a band on a membrane.

The target in experiment [2] is p50, a subunit of NF-κB (human) (UniProt P19838). The experiment is described as above.

Results are given in words; binding and its absence hold for the method and conditions named. In cells and extracts the contact can be indirect. Some binding calls cover weakened binding; strength is not graded here.

With “p50, a subunit of NF-κB (from UniProt P19838 1-433)”, in experiment [1], the binding result is on record as “binds”.

B1: N-terminal fragment (amino acids 1–276) of SP110 (domain or fragment, UniProt Q9HB58 1-276)
chain: T1 sequence
On to B1, for which, in experiment [2], the binding result is recorded as “binds”.
